About 7,700 (2.3%) of roughly 330,000 compounds were called active. The shares of active, inactive and inconclusive entries below differ from those in the screen. Calls come from the whole dose curve; as a rule, active = well fitted inhibition curve with a large enough effect; inconclusive = small, poorly fitted or top-dose-only effect, or effect the other way; inactive = flat fitted curve, though single readings scatter. A potency beside an inconclusive call is a rough fit, not a confirmed value.
assay: qHTS screen for small molecules that inhibit ELG1-dependent DNA repair in human embryonic kidney (HEK293T) cells expressing luciferase-tagged ELG1; conditions: HEK293T ELG1-luciferase reporter, luminescence, 16 h, DNA damage induced by 5-fluorouridine; activity change, negative = inhibition: at 46.1 µM (top of the series); note: nearly all actives have a fitted effect of over 55% in size
In short: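 HEK293T cells expressing luciferase-tagged ELG1 (2,000/well) received 5-Fluorouridine plus compound or DMSO for 16 hr at 37 °C. Luciferase was read by ONE-Glo luminescence after 30 min at room temperature.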
% is set by controls: 0 for no effect and ±100 for the full control effect; potency is the fitted concentration of half-maximal effect.

| SMILES | Potency | activity change, negative = inhibition |
| --- | --- | --- |
| CCc1ccc(NC(=O)CSc2nc(=O)n(CCCN3CCOCC3)c3c2CCCC3)cc1 | inconclusive: 32.6 µM [inhibitor, single point] | – |
| COc1ccccc1Nc1nc(N)nc(CSC(=S)N2CC(C)CC(C)C2)n1 (centres undefined) | inconclusive: 29.1 µM [inhibitor, single point] | – |
| COCCNc1nc(C)cc(-c2cc(-c3ccc(Cl)cc3)on2)n1 | – | inactive: 13.3% |
| O=C(NCCCN1CCOCC1)c1ccc(Sc2cccc(Cl)c2)c([N+](=O)[O-])c1 | – | inactive: 10.2% |
| C/C(NC(=O)c1cccs1)=C1\C(=O)C[C@@H]2[C@H]1C2(C)C | inconclusive: 20.6 µM [activator, single point] | – |
| CCn1c(C)nc2cc(C(=O)NN=Cc3ccccc3OC(F)F)ccc21 | inconclusive: 9.2 µM [activator, partial curve, poor fit] | – |
| COc1cc(NC(=O)c2cc3sccc3n2C)cc(OC)c1 | inconclusive: 2.06 µM [activator, partial curve] | – |
| CC(=O)c1c(C)[nH]c(C(=O)OCC(=O)N2CC(=O)Nc3ccccc32)c1C | – | inactive: 11.1% |
| c1ccc(Cn2nnc(CNc3ccccc3)c2-c2c(CNc3ccccc3)nnn2Cc2ccccc2)cc1 | – | inactive: -3.11% |
| O=C(O)c1ccc(CN2C(=O)c3cccc4c([N+](=O)[O-])ccc(c34)C2=O)cc1 | inconclusive: 20.6 µM [inhibitor, single point] | – |
| CC(C)[C@H](NC(=O)c1ccccc1)C(=O)OCC(=O)c1ccc2c(c1)NC(=O)CO2 | – | inactive: 14.8% |
| Cn1cccc1C(=O)OCC(=O)NCc1ccc2c(c1)OCO2 | inconclusive: 16.4 µM [activator, partial curve, poor fit] | – |
| O=C(COC(=O)c1cc2ccccc2cc1O)c1ccccc1 | inconclusive: 32.6 µM [activator, partial curve, poor fit] | – |
| Cn1c(SCC(=O)NC2CCCCCC2)nnc1-c1cccs1 | inconclusive: 1.26 µM [activator, single point] | – |
| Cc1ccc(C(=O)N2CCN(c3ccccc3)CC2)cc1NC(=O)c1ccco1 | inconclusive: 29.1 µM [inhibitor, single point] | – |
| CC(C)OCCCNC(=O)COCC(=O)Nc1ccc(OCCc2ccccc2)cc1 | – | inactive: -17.8% |
| CN(C)CCN(C(=O)/C=C/c1cccs1)c1nc2ccc(Br)cc2s1 | inconclusive: 20.6 µM [activator, single point] | – |
| CCOC(=O)c1ccc2c(c1)C1C=CCC1C(C(=O)OCC)N2 (centres undefined) | – | inconclusive: 27.6% [activator] |
| O=C(NCc1ccccn1)c1ccc(Cl)cc1Cl | inconclusive: 23.1 µM [activator, single point] | – |

Pulled one by one from above (2):

| SMILES | Potency | activity change, negative = inhibition |
| --- | --- | --- |
| COc1cc(NC(=O)c2cc3sccc3n2C)cc(OC)c1 | inconclusive: 2.06 µM [activator, partial curve] | – |
| Cn1cccc1C(=O)OCC(=O)NCc1ccc2c(c1)OCO2 | inconclusive: 16.4 µM [activator, partial curve, poor fit] | – |
